Library screening results

Chains of the proteins cited; added tags and fusions are not shown.
UniProt E9BF75, entry or part of it: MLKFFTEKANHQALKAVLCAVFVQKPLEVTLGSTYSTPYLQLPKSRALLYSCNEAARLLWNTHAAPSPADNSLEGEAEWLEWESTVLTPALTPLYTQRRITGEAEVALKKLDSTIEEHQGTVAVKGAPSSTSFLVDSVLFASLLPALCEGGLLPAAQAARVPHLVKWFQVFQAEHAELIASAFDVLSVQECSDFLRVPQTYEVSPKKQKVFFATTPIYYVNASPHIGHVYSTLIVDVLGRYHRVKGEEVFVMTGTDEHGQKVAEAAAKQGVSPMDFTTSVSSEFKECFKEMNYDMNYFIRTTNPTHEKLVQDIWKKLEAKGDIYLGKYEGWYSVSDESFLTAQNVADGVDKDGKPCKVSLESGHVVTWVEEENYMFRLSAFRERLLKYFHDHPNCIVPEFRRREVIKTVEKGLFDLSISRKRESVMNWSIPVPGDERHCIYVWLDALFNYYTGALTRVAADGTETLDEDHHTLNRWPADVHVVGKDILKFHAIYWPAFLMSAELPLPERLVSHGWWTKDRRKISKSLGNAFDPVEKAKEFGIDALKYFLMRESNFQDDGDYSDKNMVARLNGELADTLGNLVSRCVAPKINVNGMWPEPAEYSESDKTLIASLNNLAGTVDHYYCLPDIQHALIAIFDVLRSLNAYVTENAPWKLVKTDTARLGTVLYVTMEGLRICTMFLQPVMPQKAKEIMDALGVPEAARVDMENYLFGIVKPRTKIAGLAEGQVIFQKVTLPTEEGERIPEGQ

The values are deposited in ChEMBL (CHEMBL3988442, “University of Dundee, Small-Polar-MMV Screening Library” (2021)).

Results are percentages, as filed.
The record does not define 0% and 100%; most values in the screen are far below 50% and negative numbers occur (in some assays of this library far below -100).
The compounds are a random part of those screened.
A dash means the value is not listed here; it may have been measured.

A: 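Assay on Mycobacterium tuberculosis, filed only as a heat shock assay from Cornell; the read-out is not stated. The concentration is filed as 10 mM, unlikely as a test dose, so the dose is not known. The record gives no direction; compounds that gave an IC50 in retests scored well above the rest, so higher reads as stronger inhibition. About 69,000 compounds were tested under these conditions; 1.4% (about 930) showed 50% or more at least once.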
B: 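Methionyl-tRNA synthetase (putative), Leishmania donovani (UniProt E9BF75). Primary screen of methionyl-tRNA synthetase; the read-out is not stated. The test concentration is not given. Values are per cent inhibition. Of about 68,000 compounds tested this way, about 24 (0.035%) reached 50% or more in at least one test.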
C: 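Whole-cell assay for inhibitors of Mycobacterium tuberculosis growth, labelled Cornell in the record; the read-out is not stated. The concentration is filed as 10 mM, unlikely as a test dose, so the dose is not known. Higher means stronger inhibition (inferred from two other growth screens of the library). About 53,000 compounds were tested under these conditions; 1.7% (about 900) showed 50% or more at least once.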

- Cn1cc(CN2CC[C@@H](NS(C)(=O)=O)[C@@H]2Cc2cccnc2)cn1 : B: 4.762%
- [H][C@]12CCCCN1CCC[C@H]2CN(C)Cc1cnn(-c2ccccc2C)c1 : A: 3.029%
- COc1cc2c(cc1OC)CN(C(=O)NC(C)c1nncn1C)CC2 (centres undefined) : A: -25.48%; B: 5.396%; C: -6.259%
- O=C(c1ccoc1)N1CC[C@H]2OCC[C@@]2(COc2ncccc2F)C1 : B: 13.75%
- O=C1O[C@@H]2CN(Cc3ccccn3)C[C@@H]2N1CCCc1ccc(F)cc1 : B: 6.452%
- COCc1nc2ncc3c(=O)n(-c4ccccc4OC)ccc3n2n1 : A: 6.562%; B: 12.32%; C: 11.54%
- CCn1ccnc1CN1CCN(c2nccc(OC)n2)CC1C (centres undefined) : A: -19.77%; B: 8.982%; C: 4.479%
- O=C(C1CCCO1)N1CCCC2(CCN(c3cccnc3)CC2)C1 (centres undefined) : B: 8.791%
- COc1ccccc1CNC(C)c1ccc2[nH]c(=O)[nH]c2c1 (centres undefined) : A: 2.149%; B: 17.78%; C: -23.88%
- CN1CCn2c(-c3ccccc3)cnc2C12CCN(CC1CC1)CC2.O=C(O)C(F)(F)F.O=C(O)C(F)(F)F.O=C(O)C(F)(F)F : A: 2.171%; C: -3.087%
- CS(=O)(=O)NCc1ncn2c1CN(C(=O)CC1CCCC1)CCC2 : A: 2.249%; B: 9.013%; C: -3.836%
- CCN1CCC(NC(=O)CN2CCc3c(ncn3C)C2)CC1 : A: 0.4122%; B: 8.333%
- Cc1nc2cc(O)nn2c(C)c1CCC(=O)NCCc1ccccc1 : A: -30.32%; B: 15.67%; C: -32.78%
- COCC(=O)N1CCN(C(=O)c2cccs2)C[C@H]1C(=O)OC : A: -0.7656%; B: 12.09%
- COCC1CCN(C(=O)c2cc(-c3ccco3)nc3c(Cl)cccc23)C1 (centres undefined) : A: 44.07%; B: 10.45%; C: 19.19%
- C[C@@H]1CN(Cc2nc(Cc3ccccc3F)no2)C[C@H](C)O1 : A: -34.53%; B: 5.722%; C: -15.54%
- CC(C(=O)Nc1ccccc1Sc1ccccc1)S(C)(=O)=O (centres undefined) : A: -23.75%; B: 27.54%; C: 13.38%
- CCC(CC)c1cc(CNC(=O)N2CCC(n3cncn3)CC2)on1 : A: 22.32%; B: 4.982%
- COCc1n[nH]c2c1CN(Cc1ccccn1)C2.O=C(O)C(F)(F)F : A: 16.75%; C: -63.8%
- COc1c(CNCc2ccc(Cn3cccn3)cc2)c(C)nn1C : A: -18.9%; B: 5.495%
- O=C(NCC1CC1)[C@@H]1CCO[C@@H]2CCN(Cc3ccco3)C[C@H]21 : B: 0.4184%
- NC(=O)N1CCCC(C(=O)N2CCN(c3nsc4ccccc34)CC2)C1 (centres undefined) : A: 9.811%; B: 19.58%
- O=C1CN(CCCNC(=O)Nc2cccc(Cl)c2F)CCN1 : A: 46.66%; B: 6.747%; C: 22.29%
- CS(=O)(=O)N1CCCC(C(=O)Nc2cnn(COCC(F)(F)F)c2)C1 (centres undefined) : A: -5.178%; B: 8.378%; C: -19.28%
- COCC(=O)N1C[C@H]2CNC[C@@]2(C(=O)NCc2cccc3[nH]ccc23)C1 : B: 6.859%
- Cc1cc(C2CCCN2Cc2ccc(S(=O)(=O)N(C)C)o2)on1 (centres undefined) : A: -15.84%; B: 17.04%; C: 10.41%
- CCCOCC1CCN(C(=O)c2cnc(-c3csc(C)n3)nc2O)C1 (centres undefined) : A: 17.18%; B: 12.79%; C: -31.95%
- CC(NC(=O)Nc1ccncc1)c1ccc2c(c1)CC(=O)N2 (centres undefined) : A: 6.477%; B: 5.783%; C: 19.48%
- Cc1nc(N2CCN(C(=O)C3CCCC3)CC2)c2c(n1)c(C)nn2C : A: 9.854%; B: -25.88%
- CCC(C)N(Cc1cccnc1)Cc1ccc2c(c1)OCCO2 (centres undefined) : A: -25.48%; B: 8.791%
- O=C(CCC(=O)N1CCC(OCc2cccnc2)CC1)c1ccccc1 : A: -15.12%; B: 16.21%; C: -10.19%
- Cc1ccccc1N1CCN(C(=O)CCc2nncn2C)C(C)C1 (centres undefined) : A: -0.8725%; B: 12.04%

Once more, the final 2:

Compound	A	B	C
O=C(CCC(=O)N1CCC(OCc2cccnc2)CC1)c1ccccc1	-15.12	16.21	-10.19
Cc1ccccc1N1CCN(C(=O)CCc2nncn2C)C(C)C1 (centres undefined)	-0.8725	12.04	-